Among the data in the supplement of paper PMC10849652 are log2 fold change values, retold here.

By UniProt entry, the sequences of proteins in these tests, tags left out. Where a name states a change or a piece, a line headed by the entry shows the natural chain unless it says otherwise.
UniProt P14621: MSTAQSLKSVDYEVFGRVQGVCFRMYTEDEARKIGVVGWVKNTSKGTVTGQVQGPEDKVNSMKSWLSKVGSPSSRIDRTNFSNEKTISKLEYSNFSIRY
UniProt P33897: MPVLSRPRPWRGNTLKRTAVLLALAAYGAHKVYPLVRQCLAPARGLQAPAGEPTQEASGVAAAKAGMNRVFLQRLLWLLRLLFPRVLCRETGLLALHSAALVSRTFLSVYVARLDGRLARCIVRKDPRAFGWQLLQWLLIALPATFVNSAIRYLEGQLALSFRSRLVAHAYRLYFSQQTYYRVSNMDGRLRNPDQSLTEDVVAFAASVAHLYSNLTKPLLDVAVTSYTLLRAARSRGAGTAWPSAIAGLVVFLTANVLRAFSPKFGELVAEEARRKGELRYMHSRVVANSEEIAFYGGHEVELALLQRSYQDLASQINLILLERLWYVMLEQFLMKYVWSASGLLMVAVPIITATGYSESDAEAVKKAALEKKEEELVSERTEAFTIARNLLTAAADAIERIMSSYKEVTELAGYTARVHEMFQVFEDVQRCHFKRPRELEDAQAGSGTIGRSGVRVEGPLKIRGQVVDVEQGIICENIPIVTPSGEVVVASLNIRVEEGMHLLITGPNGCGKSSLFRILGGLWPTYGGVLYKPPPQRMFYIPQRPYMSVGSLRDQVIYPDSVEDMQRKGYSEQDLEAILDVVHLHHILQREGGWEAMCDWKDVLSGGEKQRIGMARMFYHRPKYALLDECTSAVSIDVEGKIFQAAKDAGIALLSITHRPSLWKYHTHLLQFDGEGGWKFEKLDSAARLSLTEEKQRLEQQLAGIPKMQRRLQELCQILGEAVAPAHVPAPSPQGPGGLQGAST
UniProt P24666: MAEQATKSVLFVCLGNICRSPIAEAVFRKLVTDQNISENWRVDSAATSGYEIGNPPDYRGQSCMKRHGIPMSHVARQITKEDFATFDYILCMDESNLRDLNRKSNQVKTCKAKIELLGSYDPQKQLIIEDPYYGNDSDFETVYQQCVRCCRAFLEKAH
UniProt Q8IZY2: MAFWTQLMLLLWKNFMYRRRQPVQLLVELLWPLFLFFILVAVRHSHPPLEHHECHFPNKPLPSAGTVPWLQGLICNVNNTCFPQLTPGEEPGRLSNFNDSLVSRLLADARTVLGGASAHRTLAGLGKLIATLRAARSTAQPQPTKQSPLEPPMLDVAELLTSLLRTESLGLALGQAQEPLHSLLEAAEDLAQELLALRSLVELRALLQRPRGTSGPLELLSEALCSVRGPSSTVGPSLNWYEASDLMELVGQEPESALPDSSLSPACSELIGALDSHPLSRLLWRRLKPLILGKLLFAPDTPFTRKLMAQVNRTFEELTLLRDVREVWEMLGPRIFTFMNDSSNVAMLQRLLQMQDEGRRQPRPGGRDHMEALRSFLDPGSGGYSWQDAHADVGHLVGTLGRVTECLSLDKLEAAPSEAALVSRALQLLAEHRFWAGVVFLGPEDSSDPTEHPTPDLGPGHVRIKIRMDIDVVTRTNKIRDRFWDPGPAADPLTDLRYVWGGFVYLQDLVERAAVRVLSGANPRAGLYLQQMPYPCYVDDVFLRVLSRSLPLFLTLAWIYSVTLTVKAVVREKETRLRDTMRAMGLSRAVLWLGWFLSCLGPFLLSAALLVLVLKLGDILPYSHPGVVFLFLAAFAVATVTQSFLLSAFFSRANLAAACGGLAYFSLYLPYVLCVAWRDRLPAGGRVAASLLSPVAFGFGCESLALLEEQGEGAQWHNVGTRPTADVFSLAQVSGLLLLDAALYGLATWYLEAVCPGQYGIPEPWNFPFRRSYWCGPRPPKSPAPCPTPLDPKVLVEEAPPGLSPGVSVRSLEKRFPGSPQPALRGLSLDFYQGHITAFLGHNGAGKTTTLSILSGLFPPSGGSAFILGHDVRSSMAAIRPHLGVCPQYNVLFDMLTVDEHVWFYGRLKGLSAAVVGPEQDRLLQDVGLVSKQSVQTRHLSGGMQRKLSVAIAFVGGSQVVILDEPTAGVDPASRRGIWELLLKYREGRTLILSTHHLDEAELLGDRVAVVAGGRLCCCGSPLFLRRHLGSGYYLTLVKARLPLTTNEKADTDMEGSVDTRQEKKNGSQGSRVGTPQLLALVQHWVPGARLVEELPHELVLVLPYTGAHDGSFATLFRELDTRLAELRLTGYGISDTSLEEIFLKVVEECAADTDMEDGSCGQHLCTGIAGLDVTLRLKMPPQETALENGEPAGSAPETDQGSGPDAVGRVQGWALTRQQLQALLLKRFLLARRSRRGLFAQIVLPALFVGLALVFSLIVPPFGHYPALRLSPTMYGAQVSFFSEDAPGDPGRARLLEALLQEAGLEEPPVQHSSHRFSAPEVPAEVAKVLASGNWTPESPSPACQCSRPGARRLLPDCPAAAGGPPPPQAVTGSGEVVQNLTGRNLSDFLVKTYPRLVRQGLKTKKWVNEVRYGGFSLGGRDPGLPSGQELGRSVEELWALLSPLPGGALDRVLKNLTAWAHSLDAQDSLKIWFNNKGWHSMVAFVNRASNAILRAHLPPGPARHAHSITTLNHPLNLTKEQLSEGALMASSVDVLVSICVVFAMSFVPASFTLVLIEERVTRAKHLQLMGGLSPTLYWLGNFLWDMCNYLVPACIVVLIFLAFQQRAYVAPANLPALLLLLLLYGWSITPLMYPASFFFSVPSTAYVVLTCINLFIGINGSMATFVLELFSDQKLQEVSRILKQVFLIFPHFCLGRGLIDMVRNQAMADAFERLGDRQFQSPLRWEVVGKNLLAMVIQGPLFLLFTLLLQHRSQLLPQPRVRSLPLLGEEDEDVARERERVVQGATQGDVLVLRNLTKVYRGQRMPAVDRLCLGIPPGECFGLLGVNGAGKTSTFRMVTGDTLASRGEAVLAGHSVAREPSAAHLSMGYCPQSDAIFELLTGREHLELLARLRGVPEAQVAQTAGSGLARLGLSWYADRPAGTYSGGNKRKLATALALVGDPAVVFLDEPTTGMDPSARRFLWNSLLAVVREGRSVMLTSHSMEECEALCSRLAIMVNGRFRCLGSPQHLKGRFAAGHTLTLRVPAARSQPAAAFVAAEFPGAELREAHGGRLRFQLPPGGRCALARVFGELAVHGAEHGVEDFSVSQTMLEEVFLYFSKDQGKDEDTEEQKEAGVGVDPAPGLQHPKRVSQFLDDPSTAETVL
UniProt Q04771: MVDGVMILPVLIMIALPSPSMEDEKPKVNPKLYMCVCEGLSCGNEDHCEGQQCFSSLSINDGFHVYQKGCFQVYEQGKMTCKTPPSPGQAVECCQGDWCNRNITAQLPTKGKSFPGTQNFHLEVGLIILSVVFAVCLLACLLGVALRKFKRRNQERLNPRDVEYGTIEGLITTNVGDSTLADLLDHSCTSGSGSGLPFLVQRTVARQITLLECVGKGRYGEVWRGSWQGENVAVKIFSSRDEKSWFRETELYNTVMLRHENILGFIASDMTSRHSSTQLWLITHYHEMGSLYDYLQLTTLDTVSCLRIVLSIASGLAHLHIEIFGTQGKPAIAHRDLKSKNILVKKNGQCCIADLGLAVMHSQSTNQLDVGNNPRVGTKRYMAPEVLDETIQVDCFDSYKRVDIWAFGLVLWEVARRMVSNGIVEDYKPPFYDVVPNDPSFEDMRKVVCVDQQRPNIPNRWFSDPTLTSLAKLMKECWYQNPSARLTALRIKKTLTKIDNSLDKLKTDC
UniProt O15254: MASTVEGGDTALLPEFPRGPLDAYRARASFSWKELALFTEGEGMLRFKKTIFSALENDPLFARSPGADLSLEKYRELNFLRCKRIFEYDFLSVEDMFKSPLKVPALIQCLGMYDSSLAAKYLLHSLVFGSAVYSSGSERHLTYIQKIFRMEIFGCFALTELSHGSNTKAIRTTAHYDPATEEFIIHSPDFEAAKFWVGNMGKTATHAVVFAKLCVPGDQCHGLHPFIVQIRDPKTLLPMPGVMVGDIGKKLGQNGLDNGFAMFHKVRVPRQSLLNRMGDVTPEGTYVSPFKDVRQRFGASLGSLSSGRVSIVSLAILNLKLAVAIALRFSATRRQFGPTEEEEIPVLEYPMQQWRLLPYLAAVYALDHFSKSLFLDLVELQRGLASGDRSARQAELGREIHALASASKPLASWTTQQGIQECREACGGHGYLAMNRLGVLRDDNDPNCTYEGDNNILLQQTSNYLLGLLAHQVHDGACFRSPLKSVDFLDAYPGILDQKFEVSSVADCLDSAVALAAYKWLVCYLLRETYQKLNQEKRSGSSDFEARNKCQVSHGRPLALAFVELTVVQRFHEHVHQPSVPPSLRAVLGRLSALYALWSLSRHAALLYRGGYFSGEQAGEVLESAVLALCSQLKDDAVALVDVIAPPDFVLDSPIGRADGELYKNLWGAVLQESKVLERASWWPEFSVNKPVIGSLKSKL
UniProt Q76LX8: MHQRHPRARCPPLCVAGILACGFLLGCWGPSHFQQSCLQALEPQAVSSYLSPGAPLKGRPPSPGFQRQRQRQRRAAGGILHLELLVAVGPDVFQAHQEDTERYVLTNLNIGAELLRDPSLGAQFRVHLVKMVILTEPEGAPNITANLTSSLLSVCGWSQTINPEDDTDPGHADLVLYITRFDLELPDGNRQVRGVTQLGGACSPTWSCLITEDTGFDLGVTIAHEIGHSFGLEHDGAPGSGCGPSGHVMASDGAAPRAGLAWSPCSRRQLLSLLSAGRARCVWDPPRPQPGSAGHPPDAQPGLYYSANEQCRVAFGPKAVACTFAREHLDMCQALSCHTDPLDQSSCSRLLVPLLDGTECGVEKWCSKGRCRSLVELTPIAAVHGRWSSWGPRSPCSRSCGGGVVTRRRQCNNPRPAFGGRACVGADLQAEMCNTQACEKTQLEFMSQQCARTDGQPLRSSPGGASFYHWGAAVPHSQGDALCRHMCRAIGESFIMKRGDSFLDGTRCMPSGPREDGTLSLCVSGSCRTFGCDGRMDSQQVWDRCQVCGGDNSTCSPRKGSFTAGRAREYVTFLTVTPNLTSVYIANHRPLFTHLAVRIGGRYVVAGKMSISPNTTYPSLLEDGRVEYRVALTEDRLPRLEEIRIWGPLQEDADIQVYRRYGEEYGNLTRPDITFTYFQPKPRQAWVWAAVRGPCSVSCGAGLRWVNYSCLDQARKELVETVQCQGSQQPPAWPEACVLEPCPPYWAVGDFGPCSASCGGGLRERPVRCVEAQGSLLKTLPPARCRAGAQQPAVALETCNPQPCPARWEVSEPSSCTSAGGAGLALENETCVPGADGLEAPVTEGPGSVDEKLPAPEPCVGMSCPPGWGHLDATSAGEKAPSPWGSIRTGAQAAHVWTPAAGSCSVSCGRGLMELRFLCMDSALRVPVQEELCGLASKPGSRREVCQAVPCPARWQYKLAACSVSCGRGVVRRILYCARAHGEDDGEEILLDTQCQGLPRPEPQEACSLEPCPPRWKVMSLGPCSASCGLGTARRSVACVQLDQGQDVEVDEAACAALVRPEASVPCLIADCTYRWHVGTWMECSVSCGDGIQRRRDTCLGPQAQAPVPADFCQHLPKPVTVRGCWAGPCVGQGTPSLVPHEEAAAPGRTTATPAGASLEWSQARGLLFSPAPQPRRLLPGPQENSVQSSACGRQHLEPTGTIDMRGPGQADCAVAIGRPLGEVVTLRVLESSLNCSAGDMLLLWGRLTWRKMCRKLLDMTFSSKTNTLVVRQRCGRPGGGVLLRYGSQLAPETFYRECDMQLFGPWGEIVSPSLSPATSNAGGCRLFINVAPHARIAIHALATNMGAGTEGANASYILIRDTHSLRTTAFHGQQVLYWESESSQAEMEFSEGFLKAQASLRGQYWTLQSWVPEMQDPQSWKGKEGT
UniProt Q9UKU0: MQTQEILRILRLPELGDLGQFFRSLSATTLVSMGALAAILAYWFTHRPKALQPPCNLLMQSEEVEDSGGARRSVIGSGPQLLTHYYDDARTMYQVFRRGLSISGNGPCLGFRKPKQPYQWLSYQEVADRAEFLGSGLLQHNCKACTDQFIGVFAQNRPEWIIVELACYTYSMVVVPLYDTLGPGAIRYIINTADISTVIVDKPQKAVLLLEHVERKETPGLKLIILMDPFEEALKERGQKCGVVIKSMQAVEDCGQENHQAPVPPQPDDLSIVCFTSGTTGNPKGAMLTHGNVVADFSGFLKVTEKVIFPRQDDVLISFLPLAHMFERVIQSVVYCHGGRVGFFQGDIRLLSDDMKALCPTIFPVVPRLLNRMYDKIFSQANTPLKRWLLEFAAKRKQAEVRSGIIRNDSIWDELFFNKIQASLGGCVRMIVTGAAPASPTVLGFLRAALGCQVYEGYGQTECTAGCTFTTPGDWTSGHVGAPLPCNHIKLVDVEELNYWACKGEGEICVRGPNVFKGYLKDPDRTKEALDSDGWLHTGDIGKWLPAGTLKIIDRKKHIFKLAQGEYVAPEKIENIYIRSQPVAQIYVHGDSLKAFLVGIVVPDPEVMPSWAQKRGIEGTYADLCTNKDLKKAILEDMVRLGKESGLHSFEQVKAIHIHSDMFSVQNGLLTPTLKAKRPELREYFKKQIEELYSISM

Some of the results follow.

Compound in this assay: CC1=C(C=C(C=C1)NC(=O)C2=CC(=CC=C2)C(C)(C)C#N)NC3=CC4=C(C=C3)N=CN(C4=O)C
The experiment in a line: log2 fold change, soluble protein after heating vs DMSO (PISA); higher = thermal stabilisation; K562 cells, 10 uM, 30 min; active = over 0.2 and 3.5 SD of the protein, either way, in both replicates (recomputed). Put shortly: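 Thermal stability values are relative to control samples and come from duplicates. They are expressed as log2 fold changes. For measurement, K562 cells (2×10^6 cells/mL) received 10 μM compound for 30 min, and aliquots were heated for 3 min over 48°C-58°C, pooled, and extracted at 4°C in PBS with 0.5% NP-40. Soluble protein, the supernatant after 21,000xg for 90 min, was quantified by TMTpro 16plex LC-MS/MS with equalised channel sums.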
For ACYP2 (UniProt P14621), the log2 fold change is inactive: -0.044. Consider ACAT1, A0A5F9ZHJ0, for which the log2 fold change was inactive: -0.087. The same measure for ACAA2 (UniProt K7ER88): inactive: -0.331; for ABCD1 (UniProt P33897): inactive: -0.172; for ACP1 (UniProt P24666): inactive: 0.007. Consider ABCE1 (UniProt H0Y990), for which the log2 fold change was inactive: 0.084.

In the case of ACTB, A0A2R8YEA7, the log2 fold change was inactive: -0.025. Then ACTN1 (UniProt H9KV75), with inactive: -0.117; and ABCA7 (UniProt Q8IZY2), with inactive: -0.029.

As to ACVR1 (UniProt Q04771), the log2 fold change is inactive: -0.194.

As for ACOX3 (UniProt O15254), the log2 fold change is inactive: 0.111. Then ADAMTS13 (UniProt Q76LX8), with inactive: 0.099; and ABCA2 isoform 3 (UniProt Q9BZC7), with inactive: -0.318; and ACSL6 isoform 1 (UniProt Q9UKU0), with inactive: 0.075.
